According to PMC3364200:
These are yes or no findings as the source states them, for the method shown. Binding can be weak; no strength is given.

Key:
[1] = biological target: T1, ANKRD26 bait 17, interacting region aa 1320–1535 (human) (UniProt Q9UPS8); assay: two-hybrid; GAL4-based screen by Myriad Genetics: 18 overlapping ANKRD26 fragments as baits (fused to Gal4 DNA binding domain) in PNY200, mated with cDNA library preys (human brain, human testis, mouse 11.5-day embryo; fused to Gal4 activation domain) in BK100; confirmed in naive yeast by liquid culture beta-galactosidase assays
T1 sequence: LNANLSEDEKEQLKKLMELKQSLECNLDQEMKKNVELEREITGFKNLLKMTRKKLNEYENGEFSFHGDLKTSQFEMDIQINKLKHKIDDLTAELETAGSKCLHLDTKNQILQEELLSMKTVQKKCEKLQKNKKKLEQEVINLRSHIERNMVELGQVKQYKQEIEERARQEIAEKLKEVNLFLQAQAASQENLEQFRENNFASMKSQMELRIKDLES

[2] = biological target: T2, ANKRD26 bait 10, interacting region aa 1519–1702 (human) (UniProt Q9UPS8); assay: as above
T2 sequence: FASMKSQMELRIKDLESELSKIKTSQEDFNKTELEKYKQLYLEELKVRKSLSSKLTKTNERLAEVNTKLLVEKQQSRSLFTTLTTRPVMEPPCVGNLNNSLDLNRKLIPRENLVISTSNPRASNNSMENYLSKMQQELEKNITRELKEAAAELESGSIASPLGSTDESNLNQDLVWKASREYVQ

binding [1] | binding [2] | Substance
binds | – | Chromosome 1 open reading frame 9, isoform 1 (two-hybrid prey) (human)
binds | – | Fb1 (two-hybrid prey) (mouse)
– | binds | Triple functional domain (PTPRF interacting), isoform 5 (two-hybrid prey) (mouse)
